Results are given in words; binding and its absence hold for the method and conditions named. Binding seen in cells or lysates may run through a third protein. Some binding calls cover weakened binding; strength is not graded here. For part of these data: Where a sequence is shown, tags or fusion partners need not be part of it. One block for each substance: values may come before it.
Experiments:
[1] = biological target: T1, Flag-RNF157 (mouse), transfected in HEK293 cells (mouse) (UniProt Q3TEL6); assay: co-IP; HEK293 cells transfected with indicated plasmids for 24 h; Nonidet P-40 lysis buffer (150 mM NaCl, 1 mM EDTA, 1% NP-40), protein G Sepharose beads, washes with 500 mM NaCl, immunoblot
T1 sequence: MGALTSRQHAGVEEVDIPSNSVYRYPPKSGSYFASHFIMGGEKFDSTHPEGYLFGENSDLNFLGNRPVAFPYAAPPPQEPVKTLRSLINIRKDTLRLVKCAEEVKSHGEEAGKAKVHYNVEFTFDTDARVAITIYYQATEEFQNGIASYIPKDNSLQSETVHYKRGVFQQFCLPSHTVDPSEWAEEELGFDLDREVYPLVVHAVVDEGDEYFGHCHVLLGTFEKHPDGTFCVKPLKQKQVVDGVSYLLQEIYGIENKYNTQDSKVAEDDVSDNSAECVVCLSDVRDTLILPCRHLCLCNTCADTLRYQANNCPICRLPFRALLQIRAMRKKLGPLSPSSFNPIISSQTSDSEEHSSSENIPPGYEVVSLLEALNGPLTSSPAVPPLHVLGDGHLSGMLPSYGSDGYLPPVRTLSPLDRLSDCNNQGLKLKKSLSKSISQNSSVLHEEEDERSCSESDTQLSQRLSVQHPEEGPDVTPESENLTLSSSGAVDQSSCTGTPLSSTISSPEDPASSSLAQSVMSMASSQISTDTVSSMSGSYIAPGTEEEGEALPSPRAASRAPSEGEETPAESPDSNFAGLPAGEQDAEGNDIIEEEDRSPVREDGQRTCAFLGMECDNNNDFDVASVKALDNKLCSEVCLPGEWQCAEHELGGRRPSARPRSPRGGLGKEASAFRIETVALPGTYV

Protein sequences, listed by entry. Tags and fused reporters are not part of them.
UniProt O09106: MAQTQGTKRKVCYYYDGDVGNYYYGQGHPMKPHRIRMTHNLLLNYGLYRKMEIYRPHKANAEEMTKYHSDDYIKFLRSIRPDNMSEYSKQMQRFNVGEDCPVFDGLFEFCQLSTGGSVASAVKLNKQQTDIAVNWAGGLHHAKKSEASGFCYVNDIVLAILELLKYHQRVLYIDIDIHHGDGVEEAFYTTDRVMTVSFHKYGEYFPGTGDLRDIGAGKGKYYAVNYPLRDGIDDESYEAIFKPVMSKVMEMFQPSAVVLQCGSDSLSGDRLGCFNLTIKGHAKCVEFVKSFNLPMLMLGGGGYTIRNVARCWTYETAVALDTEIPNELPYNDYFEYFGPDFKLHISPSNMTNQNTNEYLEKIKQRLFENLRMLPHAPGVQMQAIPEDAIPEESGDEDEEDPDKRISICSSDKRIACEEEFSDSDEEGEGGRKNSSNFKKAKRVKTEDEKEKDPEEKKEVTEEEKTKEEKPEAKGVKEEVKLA
UniProt Q13547: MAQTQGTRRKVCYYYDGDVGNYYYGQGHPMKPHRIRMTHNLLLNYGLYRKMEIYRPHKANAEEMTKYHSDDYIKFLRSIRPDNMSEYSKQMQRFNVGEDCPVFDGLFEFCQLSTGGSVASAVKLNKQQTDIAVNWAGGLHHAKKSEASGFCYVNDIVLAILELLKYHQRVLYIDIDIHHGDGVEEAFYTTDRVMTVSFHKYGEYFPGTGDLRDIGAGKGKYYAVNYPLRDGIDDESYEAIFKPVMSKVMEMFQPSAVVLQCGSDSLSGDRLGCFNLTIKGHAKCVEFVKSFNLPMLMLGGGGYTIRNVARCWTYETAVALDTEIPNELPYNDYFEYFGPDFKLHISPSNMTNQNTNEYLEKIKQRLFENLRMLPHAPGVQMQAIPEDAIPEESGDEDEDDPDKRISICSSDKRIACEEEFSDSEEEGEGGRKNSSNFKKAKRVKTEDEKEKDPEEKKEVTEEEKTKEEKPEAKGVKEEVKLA

[2] = biological target: T2, RNF157 (RING finger 157), endogenous, human CD4+ T cells (human (endogenous in human CD4+ T cells)) (UniProt Q96PX1); assay: co-IP; endogenous proteins in human CD4+ T cells; Nonidet P-40 lysis buffer (150 mM NaCl, 1 mM EDTA, 1% NP-40), protein G Sepharose beads, washes with lysis buffer containing 500 mM NaCl, immunoblot
T2 sequence: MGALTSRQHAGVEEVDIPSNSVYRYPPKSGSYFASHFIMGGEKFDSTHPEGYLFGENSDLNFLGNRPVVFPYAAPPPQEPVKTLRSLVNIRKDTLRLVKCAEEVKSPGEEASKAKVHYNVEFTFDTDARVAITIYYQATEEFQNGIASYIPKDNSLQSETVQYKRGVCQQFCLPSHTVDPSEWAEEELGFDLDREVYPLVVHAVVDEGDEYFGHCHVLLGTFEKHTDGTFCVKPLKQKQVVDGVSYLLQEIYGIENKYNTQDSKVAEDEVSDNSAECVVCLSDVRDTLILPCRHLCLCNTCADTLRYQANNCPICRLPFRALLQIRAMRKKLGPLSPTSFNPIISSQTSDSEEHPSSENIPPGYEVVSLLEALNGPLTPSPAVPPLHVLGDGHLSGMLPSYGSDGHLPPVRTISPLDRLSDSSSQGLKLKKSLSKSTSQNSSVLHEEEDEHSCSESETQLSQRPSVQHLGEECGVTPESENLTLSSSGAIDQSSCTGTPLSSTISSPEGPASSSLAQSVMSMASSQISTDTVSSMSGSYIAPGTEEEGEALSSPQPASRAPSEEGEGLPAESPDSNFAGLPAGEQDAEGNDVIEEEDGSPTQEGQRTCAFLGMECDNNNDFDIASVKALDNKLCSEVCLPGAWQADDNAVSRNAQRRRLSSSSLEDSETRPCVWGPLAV

[3] = biological target: T3, Flag-RNF157 (mouse), retrovirally expressed in mouse CD4+ T cells (mouse) (UniProt Q3TEL6); assay: co-IP; mouse naive CD4+ T cells infected with retrovirus expressing Flag-RNF157, stimulated with anti-CD3 plus anti-CD28 for 12 h; IP with Flag antibody, immunoblot; washes with 500 mM NaCl
T3 sequence: T1 sequence

- binding [1]: binds
Substance: Myc-HDAC1 (WT), transfected in HEK293 cells (from UniProt O09106 1-482)

- binding [2]: binds
Substance: HDAC1 (histone deacetylase 1), endogenous, human CD4+ T cells (from UniProt Q13547 1-482)

- binding [3]: binds
Substance: HDAC1, endogenous, mouse CD4+ T cells (from UniProt O09106 1-482)

Reference: PMC10334825
